Measurements as given in PubChem BioAssay AID330 (DTP/NCI, 2004).
The list is a part of this screen's results and no random one: it is rich in T/C values a quarter to a half above the control, in often repeated tests (any T/C) and in doses without a T/C. Other doses and runs of a compound stand elsewhere. T/C gives the treated animals as a percentage of the vehicle group. Some doses have a count of surviving animals in place of a T/C: the source files T/C as zero there, which appears to mark a toxic dose or a test without result, not a measured value. Some survivor counts are full or nearly so, which does not show that the dose was tolerated: survival well below the control is almost never listed, so the zero probably covers shortened survival too. Counts of survivors are from the toxicity check (mostly the fifth day) where no day follows; animals may have died later. Schedules are NCI's codes, taken here to give the interval after Q, in days (D) or hours (H), and the number of doses after X. Some entries were tested several times; their values stand side by side, smallest first. Signs of the kind (2×) say how often a value occurs here. Where survival is the endpoint, the PubChem record calls one and a half times the control and up active, and a quarter to a half above the control has no call in these data; cut-offs in other NCI protocols can differ. Some T/C values carry the count of animals alive at the toxicity check (mostly the fifth day); without a count, all were alive then.

Test system: P388 leukemia ip, CD2F1 mice, survival T/C
Assay: NCI In Vivo Anticancer Drug Screen. Data for tumor model P388 Leukemia (intraperitoneal) in CD2F1 (CDF1) mice
Conditions: T/C endpoint: median survival time, higher T/C = longer survival
[1] = dose: 200.0 mg/kg/injection, schedule: Q01DX009 (ip), vehicle: saline with Tween-80
[2] = dose: 400.0 mg/kg/injection, schedule: Q01DX009 (ip), vehicle: saline
[3] = dose: 240.0 mg/kg/injection, schedule: Q01DX005 (ip), vehicle: saline with Tween-80
[4] = dose: 6.25 mg/kg/injection, schedule: Q04DX003 (ip), vehicle: distilled water + Tween-80
[5] = dose: 12.5 mg/kg/injection, schedule: Q04DX003 (ip), vehicle: distilled water + Tween-80
[6] = dose: 200.0 mg/kg/injection, schedule: Q01DX009 (ip), vehicle: Klucel (hydroxypropylcellulose) (HPC)
[7] = dose: 200.0 mg/kg/injection, schedule: Q01DX005 (ip), vehicle: saline with Tween-80
[8] = dose: 100.0 mg/kg/injection, schedule: Q01DX005 (ip), vehicle: saline
[9] = dose: 200.0 mg/kg/injection, schedule: Q01DX005 (ip), vehicle: saline
[10] = dose: 100.0 mg/kg/injection, schedule: Q01DX009 (ip), vehicle: Klucel (hydroxypropylcellulose) (HPC)
[11] = dose: 50.0 mg/kg/injection, schedule: Q01DX005 (ip), vehicle: Klucel (hydroxypropylcellulose) (HPC)
[12] = dose: 100.0 mg/kg/injection, schedule: Q01DX005 (ip), vehicle: Klucel (hydroxypropylcellulose) (HPC)
[13] = dose: 200.0 mg/kg/injection, schedule: Q01DX005 (ip), vehicle: Klucel (hydroxypropylcellulose) (HPC)
[14] = dose: 100.0 mg/kg/injection, schedule: Q04DX003 (ip), vehicle: saline with Tween-80
[15] = dose: 50.0 mg/kg/injection, schedule: Q01DX009 (ip), vehicle: Klucel (hydroxypropylcellulose) (HPC)

With `CCCCCNC(=O)c1csc(-c2csc(CCNC(C)=O)n2)n1` the survivor count (dose: 200.0 mg/kg/injection, schedule: Q01DX009 (ip), vehicle: distilled water + Tween-80) was 1 of 6.

With `CC(=O)OC1CC2CCC1(C)C2(C)C` (centres undefined) the survivor count [1] was 2 of 6.

With `N#CC(C#N)=C(C#N)C#N` the survivor count (dose: 400.0 mg/kg/injection, schedule: Q04DX003 (ip), vehicle: saline with Tween-80) was 0 of 6.

With `NC(CCl)=NCc1ccccc1` the survivor count (dose: 60.0 mg/kg/injection, schedule: Q01DX005 (ip), vehicle: saline) was 5 of 6, the survivor count (dose: 120.0 mg/kg/injection, schedule: Q01DX005 (ip), vehicle: saline) was 0 of 6 and the survivor count (dose: 240.0 mg/kg/injection, schedule: Q01DX005 (ip), vehicle: saline) was 0 of 6.

For `CC(=O)Oc1cccnc1[N+](=O)[O-]`, the T/C (dose: 200.0 mg/kg/injection, schedule: Q01DX009 (ip), vehicle: saline) was 130 % of control and the survivor count [2] was 2 of 6 and 5 of 6.

With `O=C1NC(=O)C2C(=O)NC(=O)C1C21CCc2ccccc21` (centres undefined) the survivor count [3] was 6 of 6.

With `COc1ccc2[nH]c3c(C)c4ccn5c(=O)c6ccccc6cc5c4c(C)c3c2c1` the survivor count (dose: 1.56 mg/kg/injection, schedule: Q04DX003 (ip), vehicle: distilled water + Tween-80) was 6 of 6, the survivor count (dose: 3.13 mg/kg/injection, schedule: Q04DX003 (ip), vehicle: distilled water + Tween-80) was 6 of 6 and the survivor count [4] was 6 of 6. For the same compound, the survivor count [5] was 6 of 6, the survivor count (dose: 25.0 mg/kg/injection, schedule: Q04DX003 (ip), vehicle: distilled water + Tween-80) was 6 of 6 and the survivor count (dose: 50.0 mg/kg/injection, schedule: Q04DX003 (ip), vehicle: distilled water + Tween-80) was 6 of 6. For the same compound, the survivor count (dose: 100.0 mg/kg/injection, schedule: Q04DX003 (ip), vehicle: distilled water + Tween-80) was 6 of 6.

For `COc1cccc2c1C(=O)c1c(O)c3c(c(O)c1C2=O)[C@@H](OC)[C@@](O)(C(C)=O)C[C@@H]3OC1CC(N)C(O)C(C)O1` (some centres undefined), the T/C (dose: 12.5 mg/kg/injection, schedule: Q04DX003 (ip), vehicle: saline) was 133 % of control [4 of 6 alive], the survivor count (dose: 25.0 mg/kg/injection, schedule: Q04DX003 (ip), vehicle: saline) was 1 of 6 and the survivor count (dose: 50.0 mg/kg/injection, schedule: Q04DX003 (ip), vehicle: saline) was 0 of 6.

`C/C=c1/[nH]c(=O)/c(=C\C=C\c2ccccc2)[nH]c1=O` was tested, and the survivor count [6] was 6 of 6 and the survivor count (dose: 400.0 mg/kg/injection, schedule: Q01DX009 (ip), vehicle: Klucel (hydroxypropylcellulose) (HPC)) was 5 of 6.

For `CN1C2CCC1CC(OC(=O)/C=C/C(=O)OC1CC3CCC(C1)N3C)C2` (centres undefined), the survivor count (dose: 240.0 mg/kg/injection, schedule: Q01DX005 (ip), vehicle: suspension in saline) was 5 of 6.

For `CCOC(=O)CNC(=O)NC(Cc1ccccc1)C(=O)OCC` (centres undefined), the survivor count [7] was 5 of 5.

With `O=c1nc2n(CC(O)CN3CCCCC3)c3cc(Cl)ccc3nc-2c(=O)[nH]1` (centres undefined) the survivor count (dose: 25.0 mg/kg/injection, schedule: Q01DX005 (ip), vehicle: saline) was 2 of 6, the survivor count (dose: 50.0 mg/kg/injection, schedule: Q01DX005 (ip), vehicle: saline) was 0 of 6 and the survivor count [8] was 0 of 6. The survivor count [9] was 0 of 6.

In the case of `O=[N+]([O-])c1cc([N+](=O)[O-])c2ccccc2c1NS(=O)(=O)c1ccc(Cl)c(Cl)c1Cl`, the T/C (dose: 100.0 mg/kg/injection, schedule: Q01DX009 (ip), vehicle: saline with Tween-80) is reported as 134 % of control, the T/C [1] is reported as 129 % of control [5 of 6 alive] and the survivor count (dose: 400.0 mg/kg/injection, schedule: Q01DX009 (ip), vehicle: saline with Tween-80) is reported as 2 of 6.

`CCOC(=O)c1nnc2cc(-c3ccccc3)nn2c1-c1ccccc1` was tested, and the survivor count [3] was 6 of 6.

For `COc1cccc2c1C(=N)c1c(O)c3c(c(O)c1C2=O)CC(O)(C(=O)CO)CC3OC1CC(N2CCOCC2)C(O)C(C)O1` (centres undefined), the T/C (dose: 0.5 mg/kg/injection, schedule: Q04DX003 (ip), vehicle: water) was 142 % of control, the survivor count (dose: 2.0 mg/kg/injection, schedule: Q04DX003 (ip), vehicle: water) was 6 of 6 on day 9 and the survivor count [4] was 2 of 6 on day 9. For the same compound, the survivor count [5] was 0 of 6 on day 9.

In the case of `CC(C)(C)N=C(CCN1CCN(CCC(=NC(C)(C)C)Nc2ccc([N+](=O)[O-])cc2)CC1)Nc1ccc([N+](=O)[O-])cc1`, the survivor count [10] is reported as 6 of 6.

For `Cc1ccc(C2=CSC3=NCCN23)cc1Cl`, the survivor count [11] was 3 of 6, the survivor count [12] was 0 of 5 and the survivor count [13] was 0 of 5.

`CN(CN(C)N=Nc1ccc(Br)cc1)CN(C)N=Nc1ccc(Br)cc1` was tested, and the survivor count (dose: 240.0 mg/kg/injection, schedule: Q01DX005 (ip), vehicle: Klucel (hydroxypropylcellulose) (HPC)) was 6 of 6.

For `CCN(CC)CCOc1ccc(-c2cc(-c3ccccc3)nc(N)n2)cc1`, the survivor count [9] was 1 of 6, 2 of 6, 4 of 5.

For `COc1ccc2c(c1)C(NCCCCCCNc1cc(C)[n+](C)c3ccc(OC)cc13)=CC(C)N2C` (centres undefined), the T/C (dose: 50.0 mg/kg/injection, schedule: Q01DX005 (ip), vehicle: saline with Tween-80) was 129 % of control, the T/C (dose: 100.0 mg/kg/injection, schedule: Q01DX005 (ip), vehicle: saline with Tween-80) was 127 [4 of 5 alive] and 129 % of control [4 of 5 alive] and the survivor count [7] was 0 of 5 and 1 of 5.

With `CCC1N=C(N)N=C(N)N1c1ccc(Cl)c(Cl)c1` (centres undefined) the T/C (dose: 25.0 mg/kg/injection, schedule: Q01DX005 (ip), vehicle: Klucel (hydroxypropylcellulose) (HPC)) was 127 % of control [4 of 5 alive], the survivor count [11] was 2 of 5 and the survivor count [12] was 0 of 5. For the same compound, the survivor count [13] was 0 of 5.

In the case of `Nc1nc(=S)c2ncn(C3OC(COC(=O)c4ccccc4)C(OC(=O)c4ccccc4)C3OC(=O)c3ccccc3)c2[nH]1` (centres undefined), the T/C [14] is reported as 137 % of control, the T/C (dose: 150.0 mg/kg/injection, schedule: Q04DX003 (ip), vehicle: saline with Tween-80) is reported as 129 % of control and the survivor count [1] is reported as 5 of 6.

With `Clc1ccccc1N=Cc1ccc(C=Nc2ccccc2Cl)cc1` the survivor count [15] was 5 of 6, the survivor count [10] was 6 of 6 and the survivor count [6] was 6 of 6.

With `O=C1CCC2ON=C(Br)C12` (centres undefined) the T/C (dose: 160.0 mg/kg/injection, schedule: Q01DX005 (ip), vehicle: distilled water + Tween-80) was 139 % of control.

`CSc1nc(-c2ccccc2)c(C(=O)NC(C)CN2CCCCC2)s1` (centres undefined) was tested, and the survivor count [3] was 1 of 6.

For `O=C(OCCOCCN1CCCCC1)C1c2ccccc2Sc2ccc(Cl)cc21` (centres undefined), the survivor count [8] was 0 of 6 and the survivor count [9] was 0 of 6.

With `C1=C[N]2c3c4c(ccc3=C1)=CC=C[N]4[Ga]2[c]1ccccc1` the T/C [15] was 126 % of control [5 of 6 alive].

In the case of `CC(C)N=Cc1ccccc1O.CC(C)N=Cc1ccccc1O.[Cu]`, the survivor count [14] is reported as 5 of 6.

With `CC(=O)O.CC(=O)O.CC[OH+]CC[OH+]CC[OH+]C1CCCC2CCC[N-]C21.[Zn]` (centres undefined) the T/C (dose: 50.0 mg/kg/injection, schedule: Q01DX005 (ip), vehicle: Klucel (hydroxypropylcellulose) (HPC), evaluated on day 20) was 118 and 120 % of control, the T/C (dose: 50.0 mg/kg/injection, schedule: Q01DX005 (ip), vehicle: Klucel (hydroxypropylcellulose) (HPC), evaluated on day 30) was 110 and 114 % of control [5 of 6 alive] and the survivor count [12] was 0 of 6 (2×). The survivor count [13] was 0 of 6.

With `CCOCC(=O)O` the survivor count [2] was 0 of 6.

`O=C1CC(c2ccccc2)C(c2ccccc2)C1=O` (centres undefined) was tested, and the survivor count (dose: 100.0 mg/kg/injection, schedule: Q04DX003 (ip), vehicle: Klucel (hydroxypropylcellulose) (HPC)) was 6 of 6, the survivor count (dose: 200.0 mg/kg/injection, schedule: Q04DX003 (ip), vehicle: Klucel (hydroxypropylcellulose) (HPC)) was 6 of 6 and the survivor count (dose: 400.0 mg/kg/injection, schedule: Q04DX003 (ip), vehicle: Klucel (hydroxypropylcellulose) (HPC)) was 6 of 6.

In the case of `COC(C(=O)N/C(N)=N/O)c1c(Cl)cccc1Cl` (centres undefined), the survivor count [13] is reported as 1 of 6.
